This is one part of the list.
Each sequence was assayed against T1, OsSMF1 (Oryza sativa, UniProt Q6ZLB0 1-436) (assay: protein-binding microarray (RPBM); PBS, 2% BSA, 51.3 ng/ul salmon testes DNA, 50 uM zinc acetate, 200 nM TF, 25 C, 1 h; high values mean tight binding). Conditions: protein: recombinant; tags: N-terminal polyhistidine and DsRed monomer fusion (pET32a); chain copies: 2; label: CyDye5-dUTP incorporated in the synthesized complementary strand; 3' TTTTT single-stranded linker to array surface; dsDNA, one strand shown.
T1 sequence: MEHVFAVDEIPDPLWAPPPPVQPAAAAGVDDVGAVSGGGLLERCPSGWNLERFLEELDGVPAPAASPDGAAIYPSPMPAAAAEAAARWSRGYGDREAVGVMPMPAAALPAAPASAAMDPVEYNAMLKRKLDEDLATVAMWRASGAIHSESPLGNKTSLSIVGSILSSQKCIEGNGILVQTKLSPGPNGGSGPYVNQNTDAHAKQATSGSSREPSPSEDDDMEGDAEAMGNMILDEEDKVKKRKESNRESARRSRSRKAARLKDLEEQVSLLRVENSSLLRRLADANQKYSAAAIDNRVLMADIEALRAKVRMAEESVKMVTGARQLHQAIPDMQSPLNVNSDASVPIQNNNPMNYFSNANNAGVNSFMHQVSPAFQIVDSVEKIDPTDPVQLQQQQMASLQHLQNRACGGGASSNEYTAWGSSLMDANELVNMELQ
Procedure, shortened: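 The binding signal is fluorescence intensity per array feature (arbitrary units). Readings came from an Axon 4000B scanner after a washed, 2% BSA-blocked, double-stranded custom Agilent array had been incubated for 1 h at 25 °C with 200 nM protein and 50 µM zinc acetate. The protein was a Ni–NTA-purified transcription factor fused N-terminally to polyhistidine and DsRed, expressed in E. coli BL21-CodonPlus.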

Sequence | binding signal
TACTTCTACCTACCTTACCAAGTCCTGACAGTTACAACGTCGGAGTCACCTAGTGCAG | 55400 fluorescence intensity (a.u.)
TATGTAGGGAGAGCCCTGACCTGCCATCATCATCAATCATCGGAGTCACCTAGTGCAG | 36600 fluorescence intensity (a.u.)
CCCGGGGTGCGCCGGGTCGGCCGCCAGCGCGGCGTCGCAGCGGAGTCACCTAGTGCAG | 4470 fluorescence intensity (a.u.)
ATCGTTCTCGGCGGCGATCACCTTAGTCAGCCTCTGCTTCCGGAGTCACCTAGTGCAG | 4730 fluorescence intensity (a.u.)
CGATCGATTCGCTCTCTCGCCGCCGCCGCCGCAGCTGACGCGGAGTCACCTAGTGCAG | 3190 fluorescence intensity (a.u.)
CGTATTTGGGATACGTTATTACGTCATCCCTTATTACATCCGGAGTCACCTAGTGCAG | 9390 fluorescence intensity (a.u.)
GGATACCTGATATCTGTTGTGGTACTAGCTGCATGGTACCCGGAGTCACCTAGTGCAG | 3380 fluorescence intensity (a.u.)
GTGAATCAATTACATGTCCACATGCTCCATACTGGTATCTCGGAGTCACCTAGTGCAG | 15300 fluorescence intensity (a.u.)
CTCCTCCTCTCACCTGACGACCTGACCCTTCTTCTTCCTCCGGAGTCACCTAGTGCAG | 3200 fluorescence intensity (a.u.)
GGATCACTACATTCAACAAAATATGTACCGTCATATCCCACGGAGTCACCTAGTGCAG | 3530 fluorescence intensity (a.u.)
ATCTCAATCTCAGGTTTGATGAAAACGACCACGTCATCGGCGGAGTCACCTAGTGCAG | 21800 fluorescence intensity (a.u.)
GCGCTGCGCGTCCGCGGCTGACTGCGCTGACGCCCGCGGCCGGAGTCACCTAGTGCAG | 4730 fluorescence intensity (a.u.)
TTCTCCGGTGCCATGTGTGCAGCGGCGGCGGCAGCGCGCCCGGAGTCACCTAGTGCAG | 3610 fluorescence intensity (a.u.)
TGAGGTGAGGTGCGTGGCCCTTGGACTTTCGAGGCGAAACCGGAGTCACCTAGTGCAG | 3570 fluorescence intensity (a.u.)
CAATCCAGCATCAAAACCGATGGTTTTGGAACACGACGGACGGAGTCACCTAGTGCAG | 3190 fluorescence intensity (a.u.)
AAGTCGGCGATCGCCGGAGAGGCGGCCGGAGGCGGTGGAGCGGAGTCACCTAGTGCAG | 3860 fluorescence intensity (a.u.)
ATTTACAACCAGGTCCTCAACCTCCACGTCGCTCACCGTCCGGAGTCACCTAGTGCAG | 4880 fluorescence intensity (a.u.)
TAAACTCCCTGCAAACGCTCTCAACCTGTCGCATGCGTGGCGGAGTCACCTAGTGCAG | 4680 fluorescence intensity (a.u.)
TCCTCTTCTCCTCCGCCGCATCAGCAATCTCTCTTTCTACCGGAGTCACCTAGTGCAG | 4100 fluorescence intensity (a.u.)
ACAACATTAACACCACTGAGCACACACTGCGCGTAGCAAACGGAGTCACCTAGTGCAG | 23300 fluorescence intensity (a.u.)
TTCTTCCTATATAAGCACAACACACGTCCTTACTTGTGTGCGGAGTCACCTAGTGCAG | 5410 fluorescence intensity (a.u.)

Copied from the list:
Under binding signal, TATGTAGGGAGAGCCCTGACCTGCCATCATCATCAATCATCGGAGTCACCTAGTGCAG shows 36600 fluorescence intensity (a.u.)
Under binding signal, GCGCTGCGCGTCCGCGGCTGACTGCGCTGACGCCCGCGGCCGGAGTCACCTAGTGCAG shows 4730 fluorescence intensity (a.u.)

Later entries

Sequence | binding signal
CTCATCTCTCGCCCAATCCGGGCCTCACGATGACACCTCGCGGAGTCACCTAGTGCAG | 4480 fluorescence intensity (a.u.)
GTGACTAGTTACCTGTGACGAGATGCAACCGGATGGCCCGCGGAGTCACCTAGTGCAG | 3990 fluorescence intensity (a.u.)
TAACTTTATATAAAGTTGTTAAGTAATATCACATTTCAAACGGAGTCACCTAGTGCAG | 28200 fluorescence intensity (a.u.)
CCAAAACTCACAAAGCTTTGCACGTCAAACATATTAGAAGCGGAGTCACCTAGTGCAG | 3540 fluorescence intensity (a.u.)
ATTTGTGGCCCGTTGTCCACGTTGCTGCCGAGTGTGAAAACGGAGTCACCTAGTGCAG | 3790 fluorescence intensity (a.u.)
GCCACACCAGCCACACCACGCTCGCACGCCGCCTCCGCCGCGGAGTCACCTAGTGCAG | 4290 fluorescence intensity (a.u.)
CTTTGTCTCACTGAGCGGTGGGCCCGGGCTGTCAGTGAGGCGGAGTCACCTAGTGCAG | 3540 fluorescence intensity (a.u.)
CTTGGTAGGCTAGTCCGCCGCGTCAACACGACGTAACGGACGGAGTCACCTAGTGCAG | 3490 fluorescence intensity (a.u.)
CTTTTATACGCGCCAGTCACGCCGCCGCTCGTCCCGTTTCCGGAGTCACCTAGTGCAG | 3460 fluorescence intensity (a.u.)
GATTTAGATGAATGTCGAGGTGGCGGCGACTTGATGGTAGCGGAGTCACCTAGTGCAG | 3600 fluorescence intensity (a.u.)
ACACTCCAGATTCCTCTTTGCAGGACACGTCTCCTCTGCCCGGAGTCACCTAGTGCAG | 5250 fluorescence intensity (a.u.)
GGCCCGAAACGCATACTCTGCCGGCGTACACATGTCACAGCGGAGTCACCTAGTGCAG | 4040 fluorescence intensity (a.u.)
CTCTATATCTACACACGTACGTGTGCTATAGCTAGCAGCTCGGAGTCACCTAGTGCAG | 3340 fluorescence intensity (a.u.)
CTCTTTCTCTCTACATATGAGACCCATGCTGACTAAGATTCGGAGTCACCTAGTGCAG | 10000 fluorescence intensity (a.u.)
GCCTCCATGCCGGACGCCAGGTCCGCCGCCGAGAATGCAACGGAGTCACCTAGTGCAG | 3200 fluorescence intensity (a.u.)
CACCGACCGCACAAGTTTCAGCTGTCACCATCTCTTGGGCCGGAGTCACCTAGTGCAG | 4230 fluorescence intensity (a.u.)
GGGATAAAGAGAGGATGACACGTGGGACCCACATGTCAGCCGGAGTCACCTAGTGCAG | 12400 fluorescence intensity (a.u.)
GGCGAGCGCGGCGGAGGAGCGGCGGCGGGCGAGCGCGGCGCGGAGTCACCTAGTGCAG | 8450 fluorescence intensity (a.u.)
CACCACCACCACGACGCCAACGTCAACGGCGAGGACCAAGCGGAGTCACCTAGTGCAG | 3270 fluorescence intensity (a.u.)
GTAGAGGTCCCAGCACCTGTCCGCCATGGCGTTCACCTTGCGGAGTCACCTAGTGCAG | 11700 fluorescence intensity (a.u.)
CCTGTATGGGTTGCCAACGGCGAAAACCCTGTCGCGGATCCGGAGTCACCTAGTGCAG | 3360 fluorescence intensity (a.u.)

Source: publication PMC7819943, “Rice protein-binding microarrays: a tool to detect cis-acting elements near promoter regions in rice”
